PubChem BioAssay AID1259424 – University of Nebraska Medical Center, 2018
The whole screen tested about 14,000 reagents; shown is a random part of them. 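Higher correlation or smaller distance means closer resemblance to KSR1 loss; control wells, including KSR1 knockdowns, recur on many plates.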 Not all columns of the deposit are shown. Not given: the time to read-out.

Assay: 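Rank knockdowns across the genome by resemblance to the KSR1 depletion profile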 (primary screen)
Cells: human HCT116 colon cancer cells
Reagents: siRNA pool against human genes, 50 nM
Measurement: 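Log2 levels of six mRNAs (branched-DNA multiplex), adjusted by two reference genes and the non-targeting median, then scored against the average KSR1 knockdown pattern as Pearson r and euclidean distance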
Reading the numbers: mean correlation with KSR1 profile and KSR1 correlation: higher = expression change more like KSR1 knockdown; mean distance from KSR1 profile: higher = expression change less like KSR1 knockdown

Target gene | mean correlation with KSR1 profile | mean distance from KSR1 profile | KSR1 correlation, replicate 1
SRRM4 | 0.41 | 6.13 | 0.514
SGCG | -0.547 | 3.27 | -0.583
EDA2R | -0.0386 | 2.07 | 0.0555
PRKDC | 0.177 | 5.26 | 0.404
GPR161 | 0.682 | 1.42 | 0.536
PUS7 | -0.196 | 2.75 | -0.218
GLRX3 | -0.328 | 1.99 | -0.144
IGFBP7 | 0.144 | 1.49 | 0.0874
GSTA2 | -0.379 | 2.21 | -0.515
BCO1 | -0.542 | 1.28 | -0.264
MVK | 0.805 | 0.904 | 0.83
PNMA3 | -0.017 | 1.96 | -0.13
DDHD1 | 0.784 | 1.55 | 0.526
DNAJC3 | 0.0484 | 1.66 | -0.249
ABHD4 | -0.471 | 2.76 | -0.211
FLRT2 | -0.412 | 1.68 | -0.158
STX8 | -0.55 | 4.87 | -0.508
ORC1 | -0.392 | 2.29 | -0.108
TAB1 | -0.133 | 2 | -0.188
VTN | 0.51 | 2.8 | 0.866

2 entries from above, sorted by “mean distance from KSR1 profile”, descending.
Target gene | mean correlation with KSR1 profile | mean distance from KSR1 profile | KSR1 correlation, replicate 1
PRKDC | 0.177 | 5.26 | 0.404
EDA2R | -0.0386 | 2.07 | 0.0555
